# Library screening results

Protein sequences, listed by entry. Tags and fused reporters are not part of them.
UniProt E9BF75, entry or part of it: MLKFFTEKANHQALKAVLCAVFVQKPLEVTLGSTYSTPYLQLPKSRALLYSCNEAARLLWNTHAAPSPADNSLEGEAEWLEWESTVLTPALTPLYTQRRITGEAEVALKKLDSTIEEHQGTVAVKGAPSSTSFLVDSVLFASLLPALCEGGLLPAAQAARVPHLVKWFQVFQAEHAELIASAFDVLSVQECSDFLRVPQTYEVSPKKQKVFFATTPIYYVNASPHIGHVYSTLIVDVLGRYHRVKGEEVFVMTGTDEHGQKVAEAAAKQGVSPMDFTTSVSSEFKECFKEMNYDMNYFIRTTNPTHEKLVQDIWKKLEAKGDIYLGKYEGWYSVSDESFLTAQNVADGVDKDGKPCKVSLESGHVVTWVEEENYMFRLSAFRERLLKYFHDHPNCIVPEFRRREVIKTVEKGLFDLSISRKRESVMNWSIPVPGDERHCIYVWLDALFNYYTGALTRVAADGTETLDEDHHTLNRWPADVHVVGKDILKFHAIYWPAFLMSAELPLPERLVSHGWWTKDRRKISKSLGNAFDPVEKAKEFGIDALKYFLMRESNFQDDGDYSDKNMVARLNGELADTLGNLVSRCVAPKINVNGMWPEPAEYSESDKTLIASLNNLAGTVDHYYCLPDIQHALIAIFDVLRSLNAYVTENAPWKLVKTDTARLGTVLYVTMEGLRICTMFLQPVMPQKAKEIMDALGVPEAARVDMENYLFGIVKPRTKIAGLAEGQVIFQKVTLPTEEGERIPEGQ

Mtb heat-shock: 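Assay on Mycobacterium tuberculosis, filed only as a heat shock assay from Cornell; the read-out is not stated. The concentration is filed as 10 mM, unlikely as a test dose, so the dose is not known. The record gives no direction; compounds that gave an IC50 in retests scored well above the rest, so higher reads as stronger inhibition. Size under these conditions: about 69,000 compounds, about 930 of them at 50% or above in at least one test.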
LdMetRS: 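Primary screen of methionyl-tRNA synthetase; the read-out is not stated. Target: Methionyl-tRNA synthetase (putative), Leishmania donovani (UniProt E9BF75). The test concentration is not given. Values are per cent inhibition. Of about 68,000 compounds tested this way, about 24 (0.035%) reached 50% or more in at least one test.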
Mtb growth Cornell: 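Whole-cell assay for inhibitors of Mycobacterium tuberculosis growth, labelled Cornell in the record; the read-out is not stated. The concentration is filed as 10 mM, unlikely as a test dose, so the dose is not known. The record gives no direction; compounds strong in two other growth screens of this library score well above the rest, so higher reads as stronger inhibition. Size under these conditions: about 53,000 compounds, about 900 of them at 50% or above in at least one test.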

Results are percentages, as filed. The record does not define 0% and 100%; most values in the screen are far below 50% and negative numbers occur (in some assays of this library far below -100). This is an unselected part of the compounds tested. A dash means the value is not listed here; it may have been measured.

{"compound": "O=C(CN1C(=O)CCNC1=O)N1CCOC(c2ccc(Cl)c(Cl)c2)C1", "stereo": "stereo not given", "Mtb heat-shock": 22.02, "LdMetRS": 6.265, "Mtb growth Cornell": -15.57}
{"compound": "COc1c(F)ccc(C(=O)N2CC[C@H](CO)[C@@H](O)C2)c1F", "Mtb heat-shock": 17.04, "LdMetRS": 7.143}
{"compound": "COCCC1(CNC(=O)NCC2CCCN(C)C2)CCC1", "stereo": "stereo not given", "Mtb heat-shock": 12.5, "LdMetRS": 5.072, "Mtb growth Cornell": 23.11}
{"compound": "Cc1noc(C)c1CN(C)C(=O)C1CCCCN1CC(C)C", "stereo": "stereo not given", "Mtb heat-shock": -23.34, "LdMetRS": 9.946, "Mtb growth Cornell": 0.03235}
{"compound": "Cc1ccc(-c2nc(C3CCN(C(=O)c4ccnn4C)CC3)no2)cn1", "Mtb heat-shock": -17.21, "LdMetRS": 18.55, "Mtb growth Cornell": 12.21}
{"compound": "CC(=O)N(C)c1nc(Cn2nnnc2C2CCCC2)cs1", "Mtb heat-shock": 18.22, "LdMetRS": 15.92, "Mtb growth Cornell": 3.679}
{"compound": "CCC(c1ccc(F)cc1F)N1CCN(CCO)CC1", "stereo": "stereo not given", "Mtb heat-shock": -35.15, "LdMetRS": 16.02}
{"compound": "CC(NC(=O)NCCN1CCCC1)c1nncn1C", "stereo": "stereo not given", "Mtb heat-shock": -0.5721, "LdMetRS": 21.23}
{"compound": "Cc1cc(C)n(-c2ccc(CNCc3ccc(F)c(F)c3)cn2)n1", "Mtb heat-shock": -12.11, "LdMetRS": 6.011}
{"compound": "O=C1CC(c2ccc(F)c(F)c2)c2snc(C(=O)O)c2N1", "stereo": "stereo not given", "Mtb heat-shock": -17.13, "LdMetRS": 6.224}
{"compound": "Cc1ncc2c(n1)CN(CCCOc1ccc(C#N)cc1)CC2", "Mtb heat-shock": -15.8, "LdMetRS": 14.46}
{"compound": "O=C(O)C(F)(F)F.O=C(O)C(F)(F)F.O=C1NCC[C@]12CN(Cc1ccncc1)C[C@H]2c1ccccc1", "Mtb heat-shock": -5.649, "Mtb growth Cornell": 10.78}
{"compound": "CCNc1ccnc(N2Cc3cnn(Cc4ccc(F)cc4)c3C2)n1", "Mtb heat-shock": -3.973, "LdMetRS": 22.91, "Mtb growth Cornell": 3.01}
{"compound": "CC(=O)c1cccc(OCC(=O)N(CC(C)C)C2CCN(C)CC2)c1", "Mtb heat-shock": -11.55, "LdMetRS": 7.474, "Mtb growth Cornell": -20.99}
{"compound": "CNc1ncccc1C(=O)N1CCCC2(CCN(C)CC2)CC1", "Mtb heat-shock": -16.42, "LdMetRS": 3.008, "Mtb growth Cornell": 12.33}
{"compound": "CN1CCC(c2cncc(-c3cccc(Cl)c3)n2)CC1", "Mtb heat-shock": -3.605, "LdMetRS": 9.709, "Mtb growth Cornell": 6.353}
{"compound": "Cl.O=c1c2sccc2nc2n1CCN(Cc1cc(F)ccc1F)CC2", "Mtb heat-shock": 0.6259, "Mtb growth Cornell": 23.59}
{"compound": "CC(C)CNC(=O)Cn1cc(C(N)=O)c(-c2ccccc2)n1", "Mtb heat-shock": -8.676, "LdMetRS": 4.032, "Mtb growth Cornell": -26.75}
{"compound": "Cc1cc(C)n(CC2CCCN2Cc2ccc(F)cc2C#N)n1", "stereo": "stereo not given", "Mtb heat-shock": -8.363, "LdMetRS": 4.381, "Mtb growth Cornell": 14.14}
{"compound": "CC1CCCCN1C(=O)CN1CCN(c2ccc3nncn3n2)CC1", "stereo": "stereo not given", "Mtb heat-shock": 5.269, "LdMetRS": 12.88, "Mtb growth Cornell": 15.1}
{"compound": "CCOCC1c2c(ncn2C)CCN1C(=O)c1cnc(C)cn1", "stereo": "stereo not given", "LdMetRS": 11.14}
{"compound": "c1ccc(CCCN2CC[C@H](c3nnc(-c4cccnc4)o3)C2)cc1", "Mtb heat-shock": 1.33, "LdMetRS": 8.242}
{"compound": "CNC(=O)CS(=O)(=O)Cc1cc(Cl)c2c(c1)OCCO2", "Mtb heat-shock": -6.535, "LdMetRS": 17.75}
{"compound": "COc1ccc2c(ccn2CCCN)c1", "LdMetRS": 13.18}
{"compound": "O=C(NCCCn1cncn1)c1ccc(-c2ccccc2)[nH]c1=O", "Mtb heat-shock": 0.7574, "LdMetRS": 4.861, "Mtb growth Cornell": -15.28}
{"compound": "CCn1cc(CN2CCCN(C(=O)c3sccc3OC)CC2)cn1", "Mtb heat-shock": -18.59, "LdMetRS": 16.62}
{"compound": "COC(=O)c1ccc(S(=O)(=O)NCC(C)(O)c2cccs2)cc1", "stereo": "stereo not given", "Mtb heat-shock": 16.33, "LdMetRS": 10.14, "Mtb growth Cornell": 21.9}
{"compound": "Cc1cc(Nc2ccccn2)nc(C2CCCN(CCO)C2)n1", "stereo": "stereo not given", "LdMetRS": 9.494}
{"compound": "Cc1nc(NC(=O)C(C)N(C)Cc2ccc3c(c2)OCO3)sc1C", "stereo": "stereo not given", "Mtb heat-shock": 4.175, "LdMetRS": 9.756, "Mtb growth Cornell": 11.72}
{"compound": "CN(CCn1cccn1)S(=O)(=O)N1CCCC1c1ccco1", "stereo": "stereo not given", "Mtb heat-shock": 10.28, "LdMetRS": 0.9524, "Mtb growth Cornell": 12.98}

Some entries from above, unchanged:

Compound,Mtb heat-shock,LdMetRS,Mtb growth Cornell
CC1CCCCN1C(=O)CN1CCN(c2ccc3nncn3n2)CC1 (stereo not given),5.269%,12.88%,15.1%
CCn1cc(CN2CCCN(C(=O)c3sccc3OC)CC2)cn1,-18.59%,16.62%,-

Source: ChEMBL document CHEMBL3988442, “University of Dundee, Small-Polar-MMV Screening Library” (2021).